The record followed here is the supplement of paper PMC4840960.

Structures can show the parent of a compound that is named as a salt. ± gives the standard deviation of the averaged measurements. This is one part of the list. Plates or batches differ in their baseline, so values are only roughly comparable. Bounds are passed on as bounds.

The subject of the experiment is E18 rat cortical neuron-glia co-culture. As to the kind of experiment: total nuclei (DAPI) / Olig2+ nuclei (ratio); higher = more depletion of OPC/OL lineage cells. The note with it: treatment time: 8 days (DIV5-DIV13).

As for `CO[C@H]1/C=C/O[C@@]2(C)Oc3c(C)c(O)c4c(c3C2=O)C2=NC3(CCN(CC(C)C)CC3)NC2=C(NC(=O)/C(C)=C\C=C\[C@H](C)[C@H](O)[C@@H](C)[C@@H](O)[C@@H](C)[C@H](OC(C)=O)[C@@H]1C)C4=O` [Rifabutin], the total nuclei reads like this: (1 µM) 3.98 ± 1.4; (5 µM) 3.85 ± 0.92.
In the case of `CC(C)(S)[C@@H](N)C(=O)O` [Penicillamine], the total nuclei (1 µM) came to 4.11 and the total nuclei (5 µM) was determined as 4.3.
As for `CC(C)NCC(O)COc1ccc(CCOCC2CC2)cc1` (stereo not drawn) [Betaxolol], the total nuclei runs as follows: (1 µM) 2.65; (5 µM) 2.6.
In the same order, the values of `CC(=O)[C@@]1(O)CC[C@H]2[C@@H]3C[C@H](C)C4=CC(=O)C=C[C@]4(C)[C@@]3(F)[C@@H](O)C[C@@]21C` [Fluorometholone] are 4.3 and 4.9.
Regarding `CC[C@H]1OC(=O)[C@H](C)[C@@H](O[C@H]2C[C@@](C)(OC)[C@@H](O)[C@H](C)O2)[C@H](C)[C@@H](O[C@@H]2O[C@H](C)C[C@H](N(C)C)[C@H]2O)[C@](C)(O)C[C@@H](C)CN(C)[C@H](C)[C@@H](O)[C@]1(C)O` [Azithromycin], the total nuclei is, setting by setting: (1 µM) 3.9; (5 µM) 4.9.
Consider `COc1ccccc1OCCNCC(O)COc1cccc2[nH]c3ccccc3c12` (stereo not drawn) [Carvedilol], for which the total nuclei is, setting by setting: (1 µM) 4.12; (5 µM) 10.
With `OCCN1C[C@H](O)[C@@H](O)[C@H](O)[C@H]1CO` [Miglitol], the total nuclei (1 µM) was determined as 5.55 and the total nuclei (5 µM) stood at 4.4.
In the same order, the values of `CC(=O)CCCCn1c(=O)c2c(ncn2C)n(C)c1=O` [Pentoxifylline] are 3.65 ± 1.3 and 3.55 ± 0.92.
Taken in the same sequence, the figures for `O=C1N(c2ccccc2)c2ccccc2C1(Cc1ccncc1)Cc1ccncc1` [Linopirdine] were 2.66 and 2.8.
For `CC(C)(C(=O)O)c1ccc(C(O)CCCN2CCC(C(O)(c3ccccc3)c3ccccc3)CC2)cc1` (stereo not drawn) [Fexofenadine], the total nuclei was 4.49 (1 µM) and 4.3 (5 µM).
In the same order, the values of `COc1ccc(/C=C/C(=O)Nc2ccccc2C(=O)O)cc1OC` [Tranilast] are 3.2 and 3.1.
In the same order, the values of `COc1cc2nc(N(C)CCCNC(=O)C3CCCO3)nc(N)c2cc1OC` (stereo not drawn) [Alfuzosin] are 4.3 and 4.6.
Taken in the same sequence, the figures for `CN1CCN2c3ncccc3Cc3ccccc3C2C1` (stereo not drawn) [Remergil] were 2.3 and 2.3.
As for `NS(=O)(=O)c1cc(C(=O)O)c(NCc2ccco2)cc1Cl` [Furosemide], the total nuclei came out at 3.62 (1 µM) and 3.6 (5 µM).
In the same order, the values of `CC(C)(C#N)c1cc(Cn2cncn2)cc(C(C)(C)C#N)c1` [Anastrozole] are 3.31 and 2.8.
As for `CCC(=O)NS(=O)(=O)c1ccc(-c2c(-c3ccccc3)noc2C)cc1` [Parecoxib], the total nuclei is, setting by setting: (1 µM) 3.6; (5 µM) 4.2.
With `CN(C)CCC(c1ccc(Br)cc1)c1ccccn1` (stereo not drawn) [Brompheniramine], the total nuclei is, setting by setting: (1 µM) 2.8; (5 µM) 2.8.
As to `Cc1c(OCC(F)(F)F)ccnc1C[S+]([O-])c1nc2ccccc2[nH]1` (stereo not drawn) [Lansoprazole], the total nuclei is, setting by setting: (1 µM) 3.3; (5 µM) 4.5.
Taken in the same sequence, the figures for `C/C=C1\[C@H]2C=C(C)C[C@]1(N)c1ccc(=O)[nH]c1C2` [Huperzine A] were 3.68 and 3.6.
For the compound `NCc1ccc(S(N)(=O)=O)cc1` [Mafenide], the total nuclei amounted to 4.6 (1 µM) and 4.8 (5 µM).
As for `Clc1cccc(Cl)c1NC1=NCCN1` [Clonidine hydrochloride], the total nuclei runs as follows: (1 µM) 2.48; (5 µM) 2.5.
Taken in the same sequence, the figures for `Cc1ncc([N+](=O)[O-])n1CC(O)CCl` (stereo not drawn) [Ornidazole] were 2.63 and 2.6.
In the same order, the values of `Nc1nnc(-c2cccc(Cl)c2Cl)c(N)n1` [Lamotrigine] are 3.75 and 4.
Take `CCN1CCN(C(=O)N[C@@H](C(=O)N[C@@H]2C(=O)N3[C@@H]2SC(C)(C)[C@@H]3C(=O)O)c2ccccc2)C(=O)C1=O` [Piperacillin]: the total nuclei turned out to be 3.8 (1 µM) and 4 (5 µM).
As to `CCCN[C@H]1CCc2nc(N)sc2C1` [Pramipexole], the total nuclei was 4.33 ± 2 (1 µM) and 4.05 ± 1.6 (5 µM).
Regarding `NC(=O)N1c2ccccc2CC(=O)c2ccccc21` [Oxcarbazepine], the total nuclei by setting is: (1 µM) 4.18; (5 µM) 24.4.
In the same order, the values of `CN(C)[C@@H]1C(O)=C(C(N)=O)C(=O)[C@@]2(O)C(O)=C3C(=O)c4c(O)cccc4[C@@](C)(O)[C@H]3[C@H](O)[C@@H]12` [Oxytetracycline] are 3.55 and 4.3.
In the same order, the values of `O=C(C1CCCCC1)N1CC(=O)N2CCc3ccccc3C2C1` (stereo not drawn) [Praziquantel] are 4.41 and 4.6.
Take `CCCCCNC(=N)N/N=C/c1c[nH]c2ccc(OC)cc12` [Tegaserod]: the total nuclei runs as follows: (1 µM) 2.8; (5 µM) above 40.
In the case of `Cn1c(=O)c2nc[nH]c2n(C)c1=O` [Theophylline], the total nuclei was 2.82 (1 µM) and 2.8 (5 µM).
Taken in the same sequence, the figures for `c1cnc(N2CCN(Cc3ccc4c(c3)OCO4)CC2)nc1` [Piribedil] were 3.62 and 3.5.
In the same order, the values of `COc1cc2nc(N3CCN(C(=O)C4CCCO4)CC3)nc(N)c2cc1OC` (stereo not drawn) [Terazosin] are 4.72 ± 1.7 and 4.15 ± 1.3.
Regarding `CNCCC(Oc1ccc(C(F)(F)F)cc1)c1ccccc1` (stereo not drawn) [Fluoxetine hydrochloride], the total nuclei reads like this: (1 µM) 4; (5 µM) above 40.
With `CN(C)CCCSc1ccccc1NC(=O)/C=C/c1ccccc1` [Cinanserin], the total nuclei reads like this: (1 µM) 3.26; (5 µM) 3.6.
Turning to `COC1=CC(=O)C[C@@H](C)[C@]12Oc1c(Cl)c(OC)cc(OC)c1C2=O` [Griseofulvin], the total nuclei runs as follows: (1 µM) 2.39; (5 µM) 2.9.
For the compound `CCC[C@@H]1C[C@@H](C(=O)N[C@@H]([C@H]2O[C@H](SC)[C@H](O)[C@@H](O)[C@H]2O)[C@@H](C)O)N(C)C1` [Lincomycin], the total nuclei (1 µM) was 2.5 and the total nuclei (5 µM) was 2.5.
Take `CN(C)CCc1c[nH]c2ccc(Cn3cncn3)cc12` [Rizatriptan]: the total nuclei (1 µM) was 2.77 and the total nuclei (5 µM) turned out to be 2.7.
In the same order, the values of `Nc1nc(Cl)nc2c1ncn2[C@H]1C[C@H](O)[C@@H](CO)O1` [Cladribine] are above 40 and above 40.
As for `Cc1nccn1CC1CCc2c(c3ccccc3n2C)C1=O` (stereo not drawn) [Ondansetron], the total nuclei reads like this: (1 µM) 4.03 ± 0.4; (5 µM) 3.95 ± 0.35.
With `O=C(O)c1cc(/N=N/c2ccc(S(=O)(=O)Nc3ccccn3)cc2)ccc1O` [Sulfasalazine], the total nuclei runs as follows: (1 µM) 2.88; (5 µM) 2.9.
`O=c1[nH]c(=O)n([C@H]2C[C@H](O)[C@@H](CO)O2)cc1F` [Floxuridine]: the total nuclei (1 µM) stood at 14.3 and the total nuclei (5 µM) was 15.2.
In the case of `CC1CNc2c(cccc2S(=O)(=O)N[C@@H](CCCNC(=N)N)C(=O)N2CC[C@@H](C)C[C@@H]2C(=O)O)C1` (stereo partly drawn) [Argatroban], the total nuclei by setting is: (1 µM) 5.1; (5 µM) 4.1.
As to `CC(C)NCC(O)COc1cccc2ccccc12` (stereo not drawn) [Propranolol], the total nuclei reads like this: (1 µM) 3.83; (5 µM) 4.2.
Taken in the same sequence, the figures for `CC1(C)S[C@@H]2[C@H](NC(=O)Cc3ccccc3)C(=O)N2[C@H]1C(=O)O` [Penicillin G] were 2.78 and 2.6.
Consider `COCCOC(=O)C1=C(C)NC(C)=C(C(=O)OC(C)C)C1c1cccc([N+](=O)[O-])c1` (stereo not drawn) [Nimodipine], for which the total nuclei is, setting by setting: (1 µM) 2.9; (5 µM) 2.8.
In the same order, the values of `CC(=O)OCC(=O)[C@@]12OC3(CCCC3)O[C@@H]1C[C@H]1[C@@H]3CCC4=CC(=O)C=C[C@]4(C)[C@@]3(F)[C@@H](O)C[C@@]12C` [Amcinonide] are 2.81 and 2.5.
For `S=c1[nH]cnc2nc[nH]c12` [Mercaptopurine], the total nuclei (1 µM) amounted to 2.73 and the total nuclei (5 µM) worked out at 5.2.
As for `Cc1ccc(-c2cc(C(F)(F)F)nn2-c2ccc(S(N)(=O)=O)cc2)cc1` [Celecoxib], the total nuclei runs as follows: (1 µM) 3.43; (5 µM) 4.2.
On to `CCCN(CCC)S(=O)(=O)c1ccc(C(=O)O)cc1` [Probenecid], for which the total nuclei was determined as 2.69 (1 µM) and 2.7 (5 µM).
With `COc1ccc(OC)c(C(O)CNC(=O)CN)c1` (stereo not drawn) [Midodrine], the total nuclei (1 µM) came out at 3.76 and the total nuclei (5 µM) was determined as 2.8.
In the same order, the values of `O=C1Nc2ccc(Cl)cc2[C@@](C#CC2CC2)(C(F)(F)F)O1` [Efavirenz] are 2.6 and 3.6.
In the same order, the values of `O=c1c(-c2ccccc2)c1-c1ccccc1` [Diphenylcyclopropenone] are 5.1 and above 40.
Taken in the same sequence, the figures for `CCN(CC)CCOC(=O)C1(C2CCCCC2)CCCCC1` [Dicyclomine] were 3.99 and 4.3.
Take `CC(=O)SCC(Cc1ccccc1)C(=O)NCC(=O)OCc1ccccc1` (stereo not drawn) [Racecadotril]: the total nuclei by setting is: (1 µM) 5.94; (5 µM) 5.4.
Regarding `C[C@@H]1O[C@@H](OC[C@H]2O[C@@H](Oc3c(-c4ccc(O)c(O)c4)oc4cc(O)cc(O)c4c3=O)[C@H](O)[C@@H](O)[C@@H]2O)[C@H](O)[C@H](O)[C@H]1O` [Rutin], the total nuclei is 2.7 (1 µM) and 2.7 (5 µM).
For `CC(=O)Oc1ccccc1C(=O)Nc1ncc([N+](=O)[O-])s1` [Nitazoxanide], the total nuclei reads like this: (1 µM) 2.95; (5 µM) 3.9.
Taken in the same sequence, the figures for `C[C@H]1C[C@H]2[C@@H]3CCC4=CC(=O)C=C[C@]4(C)[C@@]3(F)[C@@H](O)C[C@]2(C)[C@@]1(O)C(=O)CCl` [Clobetasol] were 2.8 and 2.9.
Taken in the same sequence, the figures for `CN(CCOc1ccc(CC2SC(=O)NC2=O)cc1)c1ccccn1` (stereo not drawn) [Rosiglitazone maleate] were 4.99 ± 0.31 and above 40.
In the same order, the values of `CCc1nn(CCCN2CCN(c3cccc(Cl)c3)CC2)c(=O)n1CCOc1ccccc1` [Nefazodone] are 2.8 and 3.6.
As to `CCCNCC(O)COc1ccccc1C(=O)CCc1ccccc1` (stereo not drawn) [Propafenone], the total nuclei is, setting by setting: (1 µM) 2.73; (5 µM) 3.7.
As for `CNCCC=C1c2ccccc2CCc2ccccc21` [Nortriptyline], the total nuclei (1 µM) was 3.94 and the total nuclei (5 µM) is 9.9.
For the compound `Cc1cnc(NC(=O)C2=C(O)c3ccccc3S(=O)(=O)N2C)s1` [Meloxicam], the total nuclei is, setting by setting: (1 µM) 3.97; (5 µM) 4.1.
Taken in the same sequence, the figures for `CCOC(=O)[C@H](CCc1ccccc1)N[C@@H](C)C(=O)N1Cc2ccccc2C[C@H]1C(=O)O` [Quinapril] were 4.13 and 4.
For the compound `COc1ccccc1OCC(O)COC(N)=O` (stereo not drawn) [Methocarbamol], the total nuclei is, setting by setting: (1 µM) 4.03; (5 µM) 3.5.
For the compound `CC(COc1ccccc1Cc1ccccc1)N1CCCCC1` (stereo not drawn) [Benproperine], the total nuclei runs as follows: (1 µM) 3.09; (5 µM) 3.6.
For the compound `CCC(C)(C)C(=O)O[C@H]1C[C@@H](C)C=C2C=C[C@H](C)[C@H](CC[C@@H]3C[C@@H](O)CC(=O)O3)[C@H]21` [Simvastatin], the total nuclei was found to be 14.5 (1 µM) and 3.9 (5 µM).
Taken in the same sequence, the figures for `CCCC1O[C@@H]2C[C@H]3[C@@H]4CCC5=CC(=O)C=C[C@]5(C)[C@H]4[C@@H](O)C[C@]3(C)[C@]2(C(=O)CO)O1` (stereo partly drawn) [Budesonide] were 2.71 and 2.6.
Taken in the same sequence, the figures for `CC(=O)N1CCN(c2ccc(OCC3COC(Cn4ccnc4)(c4ccc(Cl)cc4Cl)O3)cc2)CC1` (stereo not drawn) [Ketoconazole] were 4.53 and 5.7.
In the case of `CN(C)c1ccc(O)c2c1C[C@H]1C[C@H]3[C@H](N(C)C)C(O)=C(C(N)=O)C(=O)[C@@]3(O)C(O)=C1C2=O` [Minocycline], the total nuclei (1 µM) was found to be 4.27 and the total nuclei (5 µM) worked out at 4.5.
